From PMC6258734 come the findings set out here.

Results are given in words; binding and its absence hold for the method and conditions named. For part of these data: In cells and extracts the contact can be indirect. Some results given as binding are weak or reduced against the parent protein; the word gives no strength. For part of these data: Sequences can lack the tags named with a protein.

One test deals with T1, VC-Slx5 (S. cerevisiae) (UniProt P32828).
T1 sequence: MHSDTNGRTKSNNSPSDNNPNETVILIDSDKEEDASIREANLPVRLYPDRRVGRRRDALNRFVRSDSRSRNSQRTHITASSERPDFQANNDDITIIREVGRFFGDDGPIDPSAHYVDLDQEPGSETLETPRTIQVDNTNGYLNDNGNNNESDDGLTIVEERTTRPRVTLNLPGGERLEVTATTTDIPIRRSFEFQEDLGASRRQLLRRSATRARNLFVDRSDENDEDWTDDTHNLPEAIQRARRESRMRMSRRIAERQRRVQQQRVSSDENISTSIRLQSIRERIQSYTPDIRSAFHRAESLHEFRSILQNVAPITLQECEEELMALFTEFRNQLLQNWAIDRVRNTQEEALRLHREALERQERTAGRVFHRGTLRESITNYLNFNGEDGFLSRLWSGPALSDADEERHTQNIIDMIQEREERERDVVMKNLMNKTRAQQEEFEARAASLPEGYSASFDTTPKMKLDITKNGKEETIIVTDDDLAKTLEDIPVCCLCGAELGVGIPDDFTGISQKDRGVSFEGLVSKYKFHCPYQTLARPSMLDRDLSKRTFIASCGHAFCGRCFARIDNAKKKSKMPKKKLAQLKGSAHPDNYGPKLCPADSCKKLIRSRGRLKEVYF
Kind of test: split reporter; BiFC (Venus fragments VN and VC) in live diploid S. cerevisiae, galactose inducible alleles, live microscopy; controls lacking one or both tagged proteins used to subtract background; signal in discrete nuclear foci.

The target in a further test is T2, GST-Slx5 (S. cerevisiae) (UniProt P32828).
T2 sequence: T1 sequence
Kind of test: pull-down; lysate of YEN1-HA cells with galactose-induced GST-Slx5 (or empty vector) bound to Glutathione Sepharose in IP buffer (40 mM Tris-HCl pH 7.5, 10% glycerol, 0.1% NP40, 150 mM NaCl); eluted in Laemmli buffer, blotted with anti-HA and anti-GST.

Another test has as its target T3, DBD-Yen1 (S. cerevisiae) (UniProt P40028).
T3 sequence: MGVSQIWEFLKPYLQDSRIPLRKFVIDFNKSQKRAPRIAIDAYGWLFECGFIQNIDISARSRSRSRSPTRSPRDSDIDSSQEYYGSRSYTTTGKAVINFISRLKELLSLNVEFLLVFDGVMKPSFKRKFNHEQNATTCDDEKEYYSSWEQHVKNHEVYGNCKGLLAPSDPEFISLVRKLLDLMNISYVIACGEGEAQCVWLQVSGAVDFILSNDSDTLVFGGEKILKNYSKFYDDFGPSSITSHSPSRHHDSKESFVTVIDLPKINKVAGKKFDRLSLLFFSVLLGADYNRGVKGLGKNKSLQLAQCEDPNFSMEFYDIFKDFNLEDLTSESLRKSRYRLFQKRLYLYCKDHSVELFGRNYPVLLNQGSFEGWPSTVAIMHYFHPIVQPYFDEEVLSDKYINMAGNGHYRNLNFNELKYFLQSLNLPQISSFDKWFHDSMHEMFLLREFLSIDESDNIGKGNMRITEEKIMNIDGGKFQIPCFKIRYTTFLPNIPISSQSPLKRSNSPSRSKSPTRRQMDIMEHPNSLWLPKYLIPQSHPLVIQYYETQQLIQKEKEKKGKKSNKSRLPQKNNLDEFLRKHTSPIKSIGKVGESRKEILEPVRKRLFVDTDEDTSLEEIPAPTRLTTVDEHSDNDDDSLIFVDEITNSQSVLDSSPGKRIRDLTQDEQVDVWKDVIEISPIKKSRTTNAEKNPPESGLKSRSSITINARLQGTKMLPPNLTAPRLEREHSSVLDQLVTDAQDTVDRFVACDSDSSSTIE
Kind of test: two-hybrid; yeast two-hybrid, AD and BD fusions; growth on medium lacking leucine and tryptophan, then spotted on medium lacking histidine to detect a positive interaction.

B1: VN-Yen1 (protein, UniProt P40028 1-759)
chain: T3 sequence
For B1, the binding result with VC-Slx5 (S. cerevisiae) is “binds”.

B2: Yen1-HA (protein, UniProt P40028 1-759)
chain: T3 sequence
Take B2: the binding entry with GST-Slx5 (S. cerevisiae) is reported as “binds”.

B3: AD-Slx5 (protein, UniProt P32828 1-619)
chain: T1 sequence
Turning to B3, the binding entry in the test with DBD-Yen1 (S. cerevisiae) is listed as “binds”.
